Laboratory results reported in PubChem BioAssay AID493014 (National Center for Advancing Translational Sciences (NCATS), 2011).
The list shows a part of the results. These are further read-outs of the screen, such as a control signal, another cell line or another target. No call is given for them. The list favours compounds with an active or inconclusive main result. The note in brackets gives the kind of curve behind each potency; many fits are weak.

Assay: qHTS Assay to Find Inhibitors of Chronic Active B-Cell Receptor Signaling
Conditions: ABC-DLBCL IkBa-CBG/CBR reporter, luminescence ratio (green luciferase fused to IkBa over red control in TMD8 lymphoma cells), 4 h
Procedure, shortened: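 TMD8 human ABC-DLBCL cells with doxycycline-inducible IκBα–green luciferase fusion and unfused red luciferase, in 0.5% FBS medium; compounds up to 46 uM, 4 h at 37C. Green/red luminescence ratio, filter-overlap corrected, fitted to concentration-response curves.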

[1] = measured here: CBR red luminescence, cell number

| SMILES | AC50 [1] | AC50 (measured here: IkBa-CBG green luminescence) |
| --- | --- | --- |
| COc1ccc(-c2ccc(/C=C3/C(=N)N4C(C)=CSC4=NC3=O)o2)c([N+](=O)[O-])c1 | 25.9 µM [rising, partial curve, poor fit] | – |
| CC(=O)N1CCN(c2ccc(NC(=O)c3ccccc3)cc2)CC1 | 11.2 µM [falling, partial curve, poor fit] | – |
| O=C(Nc1nsc(-c2ccccc2)n1)c1cccs1 | 0.92 µM [falling, full curve] | – |
| O=C(c1cccs1)[C@@H]1[C@@H]2C(=O)N(Cc3ccc4c(c3)OCO4)C(=O)[C@@H]2C2c3ccccc3C=CN21 (some centres undefined) | 22.4 µM [falling, single point] | – |
| CCn1nnc2sc3c(c2c1=O)CCC(C)C3 (centres undefined) | 2 µM [rising, full curve, poor fit] | – |
| CSc1ccc(CNc2ccc(C)cc2)cc1 | 5.01 µM [rising, full curve] | – |
| Cc1ccc(NC(=O)C2C(=O)N(C)c3ccccc32)cc1 (centres undefined) | 0.0184 µM [rising, full curve, poor fit] | – |
| COc1cc(Cl)cc(C(=O)O)c1OCC(=O)O | 3.98 µM [rising, full curve, poor fit] | – |
| Cc1nc(Nc2ccc(Cl)cc2)c(C#N)c(=O)[nH]1 | 15.8 µM [rising, partial curve, poor fit] | – |
| O=C1SCCc2c1n(Cc1ccccc1)c1ccccc21 | 1.16 µM [rising, partial curve, poor fit] | – |
| C(=N\Nc1nc(N2CCCC2)nc(N2CCCC2)n1)/c1ccncc1 | 0.1 µM [falling, full curve, poor fit] | – |
| Cc1ccccc1NC(=O)C(=O)c1cn(C)c2ccccc12 | 6.31 µM [falling, partial curve, poor fit] | – |
| CN1CCN(c2ccccc2NC(=O)c2cc3c(s2)-c2ccccc2OC3)CC1 | 15.8 µM [falling, partial curve, poor fit] | – |
| N#C/C(=C/N1CCOCC1)c1ccccc1 | 35.5 µM [falling, single point] | – |
| COc1ccc(C(=O)CCS(=O)(=O)c2ccc(C)cc2)cc1OC | 17.8 µM [falling, single point] | – |
| Cc1ccc(NC(NC(=O)c2cccs2)C(Cl)(Cl)Cl)cc1C (centres undefined) | 35.5 µM [falling, single point] | – |
| Cc1cc2cc(CNC(=S)Nc3ccc(OC(F)F)cc3)ccc2[nH]1 | 8.2 µM [falling, partial curve, poor fit] | 23.1 µM [falling, single point] |
| Cc1ccc2cccc(OCc3ccccc3)c2n1 | 0.794 µM [rising, full curve, poor fit] | – |

Part of the list above, as comma-separated lines:
SMILES,AC50 [1],AC50 (measured here: IkBa-CBG green luminescence)
Cc1ccc(NC(=O)C2C(=O)N(C)c3ccccc32)cc1 (centres undefined),"0.0184 µM [rising, full curve, poor fit]",–
COc1cc(Cl)cc(C(=O)O)c1OCC(=O)O,"3.98 µM [rising, full curve, poor fit]",–
Cc1nc(Nc2ccc(Cl)cc2)c(C#N)c(=O)[nH]1,"15.8 µM [rising, partial curve, poor fit]",–
